Laboratory results from the supplement of paper PMC12067093, “Discovery and optimisation of a covalent ligand for TRIM25 and its application to targeted protein ubiquitination” (Chemical Science, 2025).
This is one part of the list.

Protein sequences, listed by entry. Tags and fused reporters are not part of them. Lines headed by an entry give the natural chain unless they say otherwise; changes in a name come on top.
UniProt Q5VT06: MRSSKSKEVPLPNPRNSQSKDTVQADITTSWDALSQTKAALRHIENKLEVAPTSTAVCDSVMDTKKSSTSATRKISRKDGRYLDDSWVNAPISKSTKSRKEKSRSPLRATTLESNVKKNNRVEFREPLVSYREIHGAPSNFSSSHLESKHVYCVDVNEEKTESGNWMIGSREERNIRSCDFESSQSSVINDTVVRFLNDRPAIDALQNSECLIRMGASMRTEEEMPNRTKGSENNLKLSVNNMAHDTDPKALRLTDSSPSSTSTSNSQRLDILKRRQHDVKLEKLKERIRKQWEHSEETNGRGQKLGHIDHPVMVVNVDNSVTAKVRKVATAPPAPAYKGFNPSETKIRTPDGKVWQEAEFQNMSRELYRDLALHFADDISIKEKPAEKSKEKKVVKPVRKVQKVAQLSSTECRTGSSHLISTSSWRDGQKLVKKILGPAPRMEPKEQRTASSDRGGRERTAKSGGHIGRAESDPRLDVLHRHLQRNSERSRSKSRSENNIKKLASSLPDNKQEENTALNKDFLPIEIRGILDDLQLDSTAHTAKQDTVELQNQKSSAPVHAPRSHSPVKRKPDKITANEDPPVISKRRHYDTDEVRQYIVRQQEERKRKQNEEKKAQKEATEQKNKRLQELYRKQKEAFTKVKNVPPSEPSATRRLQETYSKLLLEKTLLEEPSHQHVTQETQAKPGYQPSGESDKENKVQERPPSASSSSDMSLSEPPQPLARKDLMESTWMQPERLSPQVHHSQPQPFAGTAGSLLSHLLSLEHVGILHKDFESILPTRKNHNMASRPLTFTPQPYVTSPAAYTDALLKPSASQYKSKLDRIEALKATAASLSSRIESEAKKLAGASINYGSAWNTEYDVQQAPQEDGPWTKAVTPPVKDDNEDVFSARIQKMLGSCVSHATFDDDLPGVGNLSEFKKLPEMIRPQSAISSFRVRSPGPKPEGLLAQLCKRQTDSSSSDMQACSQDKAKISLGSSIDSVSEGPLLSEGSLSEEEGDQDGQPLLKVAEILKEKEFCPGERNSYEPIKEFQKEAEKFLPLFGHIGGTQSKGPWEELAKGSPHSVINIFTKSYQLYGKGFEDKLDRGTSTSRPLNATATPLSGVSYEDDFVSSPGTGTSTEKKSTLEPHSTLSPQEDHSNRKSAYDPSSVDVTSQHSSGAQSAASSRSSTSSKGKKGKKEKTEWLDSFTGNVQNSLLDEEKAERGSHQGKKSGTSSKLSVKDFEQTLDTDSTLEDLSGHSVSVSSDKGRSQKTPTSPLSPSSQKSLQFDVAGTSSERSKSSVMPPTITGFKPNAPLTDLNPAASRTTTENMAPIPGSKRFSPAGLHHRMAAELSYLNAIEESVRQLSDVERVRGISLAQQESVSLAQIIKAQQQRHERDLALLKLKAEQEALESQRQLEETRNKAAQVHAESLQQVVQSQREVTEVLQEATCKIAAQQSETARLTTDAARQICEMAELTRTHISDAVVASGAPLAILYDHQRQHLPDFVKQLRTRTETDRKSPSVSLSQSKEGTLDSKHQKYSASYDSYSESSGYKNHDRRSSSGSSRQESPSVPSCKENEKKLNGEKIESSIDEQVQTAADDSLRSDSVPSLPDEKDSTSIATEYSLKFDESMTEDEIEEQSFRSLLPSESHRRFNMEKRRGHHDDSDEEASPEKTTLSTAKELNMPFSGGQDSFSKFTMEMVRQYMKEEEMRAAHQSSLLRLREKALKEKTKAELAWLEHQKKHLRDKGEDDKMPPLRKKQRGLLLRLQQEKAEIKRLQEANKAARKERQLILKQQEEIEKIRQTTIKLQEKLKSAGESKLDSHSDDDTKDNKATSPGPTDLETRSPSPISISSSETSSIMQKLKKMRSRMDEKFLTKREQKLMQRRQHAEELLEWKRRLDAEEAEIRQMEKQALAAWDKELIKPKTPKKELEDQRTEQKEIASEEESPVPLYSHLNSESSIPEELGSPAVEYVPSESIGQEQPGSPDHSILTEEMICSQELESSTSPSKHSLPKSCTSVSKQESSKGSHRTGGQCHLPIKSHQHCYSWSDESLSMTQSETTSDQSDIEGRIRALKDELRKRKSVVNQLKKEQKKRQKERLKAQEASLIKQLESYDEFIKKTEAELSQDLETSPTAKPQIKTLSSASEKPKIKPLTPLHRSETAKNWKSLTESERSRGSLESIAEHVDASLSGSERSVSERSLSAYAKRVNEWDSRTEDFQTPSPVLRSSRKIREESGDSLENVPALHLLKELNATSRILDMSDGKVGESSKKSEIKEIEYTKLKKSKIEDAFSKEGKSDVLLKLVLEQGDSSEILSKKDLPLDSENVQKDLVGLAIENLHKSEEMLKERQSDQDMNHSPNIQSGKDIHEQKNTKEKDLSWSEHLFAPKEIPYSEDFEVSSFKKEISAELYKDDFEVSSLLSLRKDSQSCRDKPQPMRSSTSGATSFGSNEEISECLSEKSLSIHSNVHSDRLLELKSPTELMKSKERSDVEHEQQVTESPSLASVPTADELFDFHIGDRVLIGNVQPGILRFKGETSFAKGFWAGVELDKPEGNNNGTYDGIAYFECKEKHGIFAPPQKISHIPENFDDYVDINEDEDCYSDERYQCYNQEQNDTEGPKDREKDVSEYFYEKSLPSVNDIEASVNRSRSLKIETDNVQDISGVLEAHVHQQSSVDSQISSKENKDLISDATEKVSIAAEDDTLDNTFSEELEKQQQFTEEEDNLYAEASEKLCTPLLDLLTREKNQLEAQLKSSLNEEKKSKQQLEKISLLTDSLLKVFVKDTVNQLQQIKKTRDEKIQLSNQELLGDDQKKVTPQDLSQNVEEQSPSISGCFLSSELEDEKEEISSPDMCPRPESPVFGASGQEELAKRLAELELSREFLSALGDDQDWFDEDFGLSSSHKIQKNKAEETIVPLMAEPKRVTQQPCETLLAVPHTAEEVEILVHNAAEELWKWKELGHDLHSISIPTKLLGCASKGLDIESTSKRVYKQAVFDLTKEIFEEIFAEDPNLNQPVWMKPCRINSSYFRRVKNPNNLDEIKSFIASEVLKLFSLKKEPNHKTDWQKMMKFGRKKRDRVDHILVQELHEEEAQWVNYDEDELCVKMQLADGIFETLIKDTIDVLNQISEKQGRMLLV
UniProt O94986: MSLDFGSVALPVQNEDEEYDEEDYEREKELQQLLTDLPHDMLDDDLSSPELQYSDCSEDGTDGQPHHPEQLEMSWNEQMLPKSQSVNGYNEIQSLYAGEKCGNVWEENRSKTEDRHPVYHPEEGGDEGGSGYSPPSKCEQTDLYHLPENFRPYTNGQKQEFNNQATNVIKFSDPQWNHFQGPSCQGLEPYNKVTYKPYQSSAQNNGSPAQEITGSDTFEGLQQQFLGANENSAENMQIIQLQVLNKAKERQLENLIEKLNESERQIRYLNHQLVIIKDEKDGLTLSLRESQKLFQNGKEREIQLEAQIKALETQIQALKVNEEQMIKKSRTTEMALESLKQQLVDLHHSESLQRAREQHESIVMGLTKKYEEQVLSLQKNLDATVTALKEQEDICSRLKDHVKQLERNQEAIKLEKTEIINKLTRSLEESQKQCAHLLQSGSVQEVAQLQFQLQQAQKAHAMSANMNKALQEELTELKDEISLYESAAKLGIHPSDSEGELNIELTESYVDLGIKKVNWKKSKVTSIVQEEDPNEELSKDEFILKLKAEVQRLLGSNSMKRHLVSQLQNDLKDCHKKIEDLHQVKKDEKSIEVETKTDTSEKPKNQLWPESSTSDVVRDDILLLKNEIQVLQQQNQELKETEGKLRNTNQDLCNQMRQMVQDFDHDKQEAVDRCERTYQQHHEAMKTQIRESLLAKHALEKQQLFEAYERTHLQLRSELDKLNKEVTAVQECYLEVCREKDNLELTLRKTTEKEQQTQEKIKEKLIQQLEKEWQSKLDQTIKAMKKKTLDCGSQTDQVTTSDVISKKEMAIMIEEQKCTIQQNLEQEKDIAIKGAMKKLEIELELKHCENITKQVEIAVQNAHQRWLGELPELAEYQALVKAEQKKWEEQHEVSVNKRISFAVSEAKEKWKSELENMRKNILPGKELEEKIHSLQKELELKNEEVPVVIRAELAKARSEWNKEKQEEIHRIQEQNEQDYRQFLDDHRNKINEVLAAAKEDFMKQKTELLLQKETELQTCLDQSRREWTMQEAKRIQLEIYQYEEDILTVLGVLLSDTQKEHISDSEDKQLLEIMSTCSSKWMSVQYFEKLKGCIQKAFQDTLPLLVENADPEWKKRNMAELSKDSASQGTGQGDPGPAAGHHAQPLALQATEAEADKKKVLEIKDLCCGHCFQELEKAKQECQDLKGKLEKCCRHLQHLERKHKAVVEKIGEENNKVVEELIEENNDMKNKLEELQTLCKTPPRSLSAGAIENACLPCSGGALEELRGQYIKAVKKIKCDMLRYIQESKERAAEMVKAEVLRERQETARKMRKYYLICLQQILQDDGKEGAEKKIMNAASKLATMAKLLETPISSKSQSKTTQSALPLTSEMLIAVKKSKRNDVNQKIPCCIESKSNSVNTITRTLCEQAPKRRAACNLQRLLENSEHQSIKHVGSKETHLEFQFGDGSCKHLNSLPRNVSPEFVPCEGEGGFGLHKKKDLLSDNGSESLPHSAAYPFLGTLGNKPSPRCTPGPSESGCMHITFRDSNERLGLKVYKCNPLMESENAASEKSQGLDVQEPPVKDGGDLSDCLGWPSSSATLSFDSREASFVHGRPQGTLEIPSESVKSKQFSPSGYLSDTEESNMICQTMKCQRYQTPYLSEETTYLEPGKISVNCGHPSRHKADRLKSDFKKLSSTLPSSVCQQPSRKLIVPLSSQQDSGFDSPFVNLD
UniProt P48643, whole entry, looked up: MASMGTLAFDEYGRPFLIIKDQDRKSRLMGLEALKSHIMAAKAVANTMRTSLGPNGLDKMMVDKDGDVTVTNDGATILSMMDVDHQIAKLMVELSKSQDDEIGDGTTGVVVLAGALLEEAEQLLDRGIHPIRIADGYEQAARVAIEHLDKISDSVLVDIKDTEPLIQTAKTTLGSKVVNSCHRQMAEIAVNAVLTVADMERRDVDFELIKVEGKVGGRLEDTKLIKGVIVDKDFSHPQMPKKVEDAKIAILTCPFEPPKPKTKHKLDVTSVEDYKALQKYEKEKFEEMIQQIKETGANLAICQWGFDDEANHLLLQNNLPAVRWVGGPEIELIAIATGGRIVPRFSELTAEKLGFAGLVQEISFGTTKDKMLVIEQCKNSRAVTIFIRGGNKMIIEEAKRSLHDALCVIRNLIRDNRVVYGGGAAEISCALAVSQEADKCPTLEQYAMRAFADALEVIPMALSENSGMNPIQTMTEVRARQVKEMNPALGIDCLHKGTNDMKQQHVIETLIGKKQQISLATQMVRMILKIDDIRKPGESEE
UniProt O60508: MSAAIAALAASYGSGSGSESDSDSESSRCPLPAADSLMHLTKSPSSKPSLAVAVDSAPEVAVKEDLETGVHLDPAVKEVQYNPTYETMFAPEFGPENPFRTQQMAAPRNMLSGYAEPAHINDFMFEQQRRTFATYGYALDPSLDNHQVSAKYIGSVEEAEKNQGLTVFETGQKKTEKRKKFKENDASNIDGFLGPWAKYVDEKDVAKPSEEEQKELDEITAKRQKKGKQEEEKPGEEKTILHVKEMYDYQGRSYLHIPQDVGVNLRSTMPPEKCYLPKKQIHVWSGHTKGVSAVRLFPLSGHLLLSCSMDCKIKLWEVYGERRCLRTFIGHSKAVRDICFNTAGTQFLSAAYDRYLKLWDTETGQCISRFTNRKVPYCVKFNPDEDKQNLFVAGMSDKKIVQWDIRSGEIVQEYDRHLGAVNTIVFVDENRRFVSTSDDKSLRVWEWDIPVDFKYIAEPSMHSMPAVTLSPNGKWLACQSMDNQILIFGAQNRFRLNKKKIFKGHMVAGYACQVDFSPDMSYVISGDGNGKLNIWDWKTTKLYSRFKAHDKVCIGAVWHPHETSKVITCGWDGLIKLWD
UniProt P50991: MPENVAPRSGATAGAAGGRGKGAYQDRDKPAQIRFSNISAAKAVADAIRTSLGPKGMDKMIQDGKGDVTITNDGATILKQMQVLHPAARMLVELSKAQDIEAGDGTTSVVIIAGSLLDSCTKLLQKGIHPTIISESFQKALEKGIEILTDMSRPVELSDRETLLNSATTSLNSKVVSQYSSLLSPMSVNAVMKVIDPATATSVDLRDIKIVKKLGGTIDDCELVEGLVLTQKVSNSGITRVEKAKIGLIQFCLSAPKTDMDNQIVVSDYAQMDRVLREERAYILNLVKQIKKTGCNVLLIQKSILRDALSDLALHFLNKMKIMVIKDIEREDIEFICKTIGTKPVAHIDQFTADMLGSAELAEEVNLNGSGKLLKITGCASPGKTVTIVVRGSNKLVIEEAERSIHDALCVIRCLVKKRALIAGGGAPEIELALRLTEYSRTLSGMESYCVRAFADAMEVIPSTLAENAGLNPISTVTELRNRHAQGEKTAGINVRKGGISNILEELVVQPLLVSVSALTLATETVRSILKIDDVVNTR

Compound: CC1Cc2ccccc2N1C(=O)C1CCCN(C1)C(=O)CCl (mixture of isomers) [TRIM25 ligand 11 (diastereomer mixture)]
Assay: probe-labelled cysteine peptide fold change vs DMSO (competition) (log2 fold change); higher = less target engagement (more negative = stronger competition)
Details: THP-1, incubation time: 4 h
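Also: competitive chemoproteomic profiling in live THP-1 cells with an iodoacetamide desthiobiotin (IA-DTB) probe, comparing probe-labelled peptide intensities in compound-treated cells against DMSO-treated controls.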

| Target | probe-labelled cysteine peptide fold change (10 µM) | probe-labelled cysteine peptide fold change (50 µM) |
| --- | --- | --- |
| CDK5_Q00535_83_KLTLVFEFCDQDLKK (UniProt Q00535) | -0.0359 | -0.0854 |
| CD58_P19256_161+166_GLIMYSWDCPMEQCK (UniProt P19256) | -0.011 | -0.0315 |
| CEP250_Q9BV73_2348_CVAELQK (UniProt Q9BV73) | -0.0293 | 0.0351 |
| CEP350_Q5VT06_1432_EVTEVLQEATCK (UniProt Q5VT06) | -0.0584 | -0.0971 |
| CEP152_O94986_732_EVTAVQECYLEVCR (UniProt O94986) | 0.0812 | 0.291 |
| CCT5_P48643_493_EMNPALGIDCLHK (UniProt P48643) | -0.0607 | -0.24 |
| CDK5RAP2_Q96SN8_1811_VSLPEDGQCPLHCEQIGEMK (UniProt Q96SN8) | 0.00278 | 0.0961 |
| CDC16_Q13042_163_LDVYCFEAFDLLTSHHMLTAQEEK (UniProt Q13042) | 0.157 | -0.0968 |
| CDC40_O60508_553_VCIGAVWHPHETSK (UniProt O60508) | 0.00393 | -0.0128 |
| CEP350_Q5VT06_2716_LCTPLLDLLTR (UniProt Q5VT06) | -0.0855 | -0.0909 |
| CEP250_Q9BV73_2008_SLEASTATLQASLDACQAHSR (UniProt Q9BV73) | 0.121 | -0.0252 |
| CCT4_P50991_295_TGCNVLLIQK (UniProt P50991) | 0.0565 | 0.255 |
| CCT5_P48643_377_MLVIEQCK (UniProt P48643) | -0.0243 | -0.101 |
| CENPV_Q7Z7K6_152+154_HTGGCHCGAVR (UniProt Q7Z7K6) | 0.131 | 0.212 |

As a short view, some entries already given.

| Target | probe-labelled cysteine peptide fold change (10 µM) | probe-labelled cysteine peptide fold change (50 µM) |
| --- | --- | --- |
| CEP350_Q5VT06_1432_EVTEVLQEATCK (UniProt Q5VT06) | -0.0584 | -0.0971 |
| CEP152_O94986_732_EVTAVQECYLEVCR (UniProt O94986) | 0.0812 | 0.291 |
| CCT5_P48643_493_EMNPALGIDCLHK (UniProt P48643) | -0.0607 | -0.24 |
